# Measurements reported in the supplement of paper PMC3334620.
# Over roughly 33,000 sequences, “E-score (-0.5 to 0.5)” has its median near -0.015; the highest 2% begin near 0.3. The list shows a part of the results.
# Target: T1, Abf1 (UniProt P14164)
# T1 sequence: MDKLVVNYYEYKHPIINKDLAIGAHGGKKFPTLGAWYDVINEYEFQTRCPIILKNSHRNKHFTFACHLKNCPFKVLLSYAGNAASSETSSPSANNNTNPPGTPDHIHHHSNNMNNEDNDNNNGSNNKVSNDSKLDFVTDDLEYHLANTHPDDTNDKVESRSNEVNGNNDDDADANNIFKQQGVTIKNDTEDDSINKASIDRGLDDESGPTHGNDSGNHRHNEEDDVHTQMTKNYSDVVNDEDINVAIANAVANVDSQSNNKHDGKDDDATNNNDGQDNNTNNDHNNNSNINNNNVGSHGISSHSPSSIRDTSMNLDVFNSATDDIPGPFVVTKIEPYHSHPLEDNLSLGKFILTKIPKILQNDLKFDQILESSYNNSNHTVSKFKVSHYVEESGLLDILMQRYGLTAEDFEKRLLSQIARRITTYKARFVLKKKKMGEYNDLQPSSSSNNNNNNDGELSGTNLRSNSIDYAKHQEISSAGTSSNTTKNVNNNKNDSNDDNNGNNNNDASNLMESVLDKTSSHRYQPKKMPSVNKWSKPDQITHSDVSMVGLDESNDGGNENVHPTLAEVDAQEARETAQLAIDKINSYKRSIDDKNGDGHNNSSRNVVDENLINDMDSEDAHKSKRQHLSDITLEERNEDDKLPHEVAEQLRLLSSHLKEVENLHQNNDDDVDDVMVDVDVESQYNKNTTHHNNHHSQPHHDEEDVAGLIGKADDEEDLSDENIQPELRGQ
# Assay: PBM E-score (8-mer binding enrichment) (E-score (-0.5 to 0.5)); higher = stronger / more preferred TF binding
# Conditions: protein concentration: 200 nM; construct: GST-full length
# Procedure, shortened: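 Each ungapped eight-base word and its reverse complement, pooled, received an E-score from the Universal PBM Analysis Suite. Underlying scans, normalised with masliner, recorded fluorescent anti-GST bound to GST-tagged yeast transcription factors. These were applied at about 100-200 nM to universal all-10-mer Agilent arrays double-stranded by primer extension.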
row,Sequence,PBM E-score
1,CGAGACGA,0.0484
2,ATTAGGCA,0.114
3,GCTTGCAC,-0.177
4,CCTATCAC,0.219
5,AAACCGGC,-0.0715
6,AGTGCACT,-0.0398
7,GGGAGAAA,-0.195
8,GTGTATTA,0.195
9,CAGGTTGC,-0.143
10,GGCCACCC,-0.19
11,CCGGCTAG,-0.297
12,GACCTATA,0.193
13,AGGCTGCA,-0.0891
14,ACTGAACT,-0.184
15,AACCCTCA,-0.0559
16,GCGCTAGC,0.0309
17,AGCGGCCG,0.141
18,CGGCTTCC,-0.135
19,GGCCGACA,-0.088
20,GGACAGCC,-0.0366
21,CGCAGCCC,-0.149
22,GCAAGACC,-0.132
23,CCTTCGGC,-0.283
24,ATCTGGAG,-0.0646
25,TAGGTTGA,-0.00555

row,Sequence,PBM E-score
1,CCGTGTGC,-0.0501
2,ATCAATCA,0.182
3,CGGCTGAA,-0.128
4,CACATTGG,-0.0823
5,TCCTTACA,-0.137
6,CGTCCTAC,-0.0375
7,AGACCAGG,-0.244
8,ATAGTAAT,0.132
9,AGTTACAA,0.0157
10,ATCTGGAA,-0.0292
11,CCGTACAC,0.3
12,CAAGGGGG,-0.28
13,AAGTGTGA,0.0268
14,GCCACGCA,-0.141
15,ACACTAAG,0.033
16,TCTATGCA,-0.0315
17,ATGACGTG,0.237
18,GACCACGA,0.123
19,ACGAAGCC,0.191
20,CTGTACCA,0.0163
21,AATGCTGC,-0.164
22,CACGCGTA,0.103
23,GCAGTGAC,0.15
24,GGCATTCA,-0.0387
25,GGAAAAAC,-0.133

row,Sequence,PBM E-score
1,GTGCTAGA,-0.0999
2,AGCGCAAA,-0.0454
3,AACTAGAT,0.0149
4,GACGGCGC,0.152
5,CCCATACC,-0.254
6,GAACATCC,0.0556
7,CCCAGAAG,-0.101
8,CAACCAGA,0.0644
9,AGCCTTGG,-0.0139
10,AAGTGTCC,-0.134
11,AGAATACT,-0.0778
12,AACTAGTA,0.0186
13,ATGTATGA,0.194
14,GCACTCTA,0.0443
15,CCCATTGA,-0.0747
16,GCCATCAC,-0.121
17,AACGAGTT,0.00207
18,CAACTAAA,-0.0959
19,CAAGTAAC,0.107
20,CGAGGCTA,-0.0925
21,GCAAACAA,0.0374
22,AGTCAAAC,-0.0544
23,ACGTTTAA,0.245
24,ATCTTTGC,0.0754
25,GGCGTCCA,-0.167

row,Sequence,PBM E-score
1,CAACGTTG,0.281
2,CTCGTTAA,0.153
3,AATTCGGA,0.029
4,GATAAACA,0.0474
5,CGGATCAG,-0.0313
6,ACATAGGG,-0.165
7,GCTTTACA,0.11
8,GGCAACTA,-0.00878
9,ACGGGTAT,0.112
10,CAACATCG,0.116
11,GCCATAAC,-0.327
12,AAGCGCAC,-0.115
13,CAGGCGCC,-0.119
14,GGACACCA,-0.219
15,GAGCACTC,0.0666
16,CTTGATAC,0.205
17,GGTCTGGA,-0.254
18,ACGAGCTA,0.0676
19,GAAATCCC,-0.101
20,ATGTTAAG,0.0617
21,TACTCATA,0.0292
22,CCTAAAAC,-0.16
23,CTTCCACA,-0.0921
24,ATCGCCAC,0.275
25,AGGATTAC,-0.158

row,Sequence,PBM E-score
1,GGCGTCAC,-0.0875
2,GGGCCCTA,-0.219
3,AACGAAAC,0.101
4,AAACTTTG,0.0105
5,GTAACCTA,0.0292
6,GCTCCAAC,0.133
7,AACATCTC,-0.063
8,TGAAAGCA,0.0533
9,CTGAGCCA,-0.225
10,ACGATCAG,0.203
11,GACGCCGA,0.0176
12,GCCGGGAC,-0.338
13,CCACCAGC,0.0706
14,AAGGCCAC,-0.121
15,AGGAGCGG,-0.329
16,GGAGGTAC,-0.152
17,ATGCCACA,0.0883
18,CGAGTTCC,0.137
19,TAATCATA,0.172
20,GAAACTGC,-0.141
21,CCCCATTC,-0.203
22,TGATGACA,0.376
23,CGAATTAC,0.0338
24,GCCCGCTA,-0.00513
25,CGCCGTAG,0.209

# 34 successive entries from above:
row,Sequence,PBM E-score
5,TCCTTACA,-0.137
6,CGTCCTAC,-0.0375
7,AGACCAGG,-0.244
8,ATAGTAAT,0.132
9,AGTTACAA,0.0157
10,ATCTGGAA,-0.0292
11,CCGTACAC,0.3
12,CAAGGGGG,-0.28
13,AAGTGTGA,0.0268
14,GCCACGCA,-0.141
15,ACACTAAG,0.033
16,TCTATGCA,-0.0315
17,ATGACGTG,0.237
18,GACCACGA,0.123
19,ACGAAGCC,0.191
20,CTGTACCA,0.0163
21,AATGCTGC,-0.164
22,CACGCGTA,0.103
23,GCAGTGAC,0.15
24,GGCATTCA,-0.0387
25,GGAAAAAC,-0.133
1,GTGCTAGA,-0.0999
2,AGCGCAAA,-0.0454
3,AACTAGAT,0.0149
4,GACGGCGC,0.152
5,CCCATACC,-0.254
6,GAACATCC,0.0556
7,CCCAGAAG,-0.101
8,CAACCAGA,0.0644
9,AGCCTTGG,-0.0139
10,AAGTGTCC,-0.134
11,AGAATACT,-0.0778
12,AACTAGTA,0.0186
13,ATGTATGA,0.194

# (cont.)

row,Sequence,PBM E-score
1,CAAAACTC,0.00092
2,GGCGAACC,-0.0759
3,ACTTATGC,-0.0348
4,GAGATATC,0.25
5,TCCCGCGA,0.117
6,GCGTCGCA,-0.0267
7,CACAAATA,0.179
8,CGATACAA,0.0457
9,AGAGAGCA,-0.0954
10,ACCAATAC,0.0318
11,TTAACAAA,0.0752
12,ACAATACA,0.0265
13,CGGGTCCA,-0.143
14,CCGCGCGG,-0.0497
15,AGGGTGCG,-0.236
16,CAGAACAA,0.136
17,CCTCGAGC,-0.0643
18,AGCGAACT,-0.0976
19,GACATATC,0.281
20,AGCCAACG,-0.13
21,ATAAGGTC,0.118
22,AGTACTTA,-0.067
23,ACGGGATA,0.145
24,CCAGGGCA,-0.208
25,CCCAGGAG,-0.25

row,Sequence,PBM E-score
1,CATAGCCG,0.0262
2,GTGCTAAA,0.11
3,ACCACTAC,-0.228
4,GCAACTTA,-0.0867
5,CCCTCGAA,-0.224
6,ATGCATTC,0.00907
7,GCTCCGCA,0.0345
8,TCGGAAAA,0.0956
9,AATGACCA,0.256
10,CGTGCACA,0.196
11,AGTTCGAC,-0.0169
12,ATAGGGCA,-0.119
13,CCATACCG,-0.262
14,AACAGCAT,-0.00917
15,GACCGTCA,0.144
16,GCATGACC,0.0806
17,AGTTAACA,0.122
18,GTAAACAC,0.00826
19,CACTTTCA,0.069
20,AGTACCTA,0.0876
21,TATGAATA,0.081
22,AATACTGC,0.105
